Measurements reported in article PMC11018632.
Results are given in words; binding and its absence hold for the method and conditions named. In cells and extracts the contact can be indirect. Some entries that bind do so weakly or less than the wild type.

Protein sequences, listed by entry. Tags and fused reporters are not part of them.
UniProt P21554: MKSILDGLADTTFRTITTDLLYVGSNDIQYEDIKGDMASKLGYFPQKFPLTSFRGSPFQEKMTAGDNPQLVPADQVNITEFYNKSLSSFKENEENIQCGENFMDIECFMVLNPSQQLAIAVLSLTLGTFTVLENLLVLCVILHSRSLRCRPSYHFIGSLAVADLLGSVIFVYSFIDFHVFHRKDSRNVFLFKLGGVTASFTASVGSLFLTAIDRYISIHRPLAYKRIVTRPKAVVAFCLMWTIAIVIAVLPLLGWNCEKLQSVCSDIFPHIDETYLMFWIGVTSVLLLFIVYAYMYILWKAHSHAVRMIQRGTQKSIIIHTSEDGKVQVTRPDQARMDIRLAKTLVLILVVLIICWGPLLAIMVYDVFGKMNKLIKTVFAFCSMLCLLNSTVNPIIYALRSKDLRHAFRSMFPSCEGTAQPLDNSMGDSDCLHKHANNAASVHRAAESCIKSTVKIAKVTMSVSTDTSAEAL
UniProt P47746: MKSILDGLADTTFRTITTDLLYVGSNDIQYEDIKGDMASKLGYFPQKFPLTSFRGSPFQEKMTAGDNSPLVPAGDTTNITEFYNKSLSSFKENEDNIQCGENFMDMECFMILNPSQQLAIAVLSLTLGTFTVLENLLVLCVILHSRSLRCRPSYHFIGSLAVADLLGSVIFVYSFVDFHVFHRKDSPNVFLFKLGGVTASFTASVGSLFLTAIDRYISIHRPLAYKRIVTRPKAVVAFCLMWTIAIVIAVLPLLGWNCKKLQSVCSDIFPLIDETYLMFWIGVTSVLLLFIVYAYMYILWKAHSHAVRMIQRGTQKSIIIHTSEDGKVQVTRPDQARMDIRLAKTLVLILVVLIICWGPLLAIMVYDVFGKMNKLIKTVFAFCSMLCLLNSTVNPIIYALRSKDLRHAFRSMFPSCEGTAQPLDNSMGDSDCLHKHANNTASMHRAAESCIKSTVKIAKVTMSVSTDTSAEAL
UniProt Q96SW2: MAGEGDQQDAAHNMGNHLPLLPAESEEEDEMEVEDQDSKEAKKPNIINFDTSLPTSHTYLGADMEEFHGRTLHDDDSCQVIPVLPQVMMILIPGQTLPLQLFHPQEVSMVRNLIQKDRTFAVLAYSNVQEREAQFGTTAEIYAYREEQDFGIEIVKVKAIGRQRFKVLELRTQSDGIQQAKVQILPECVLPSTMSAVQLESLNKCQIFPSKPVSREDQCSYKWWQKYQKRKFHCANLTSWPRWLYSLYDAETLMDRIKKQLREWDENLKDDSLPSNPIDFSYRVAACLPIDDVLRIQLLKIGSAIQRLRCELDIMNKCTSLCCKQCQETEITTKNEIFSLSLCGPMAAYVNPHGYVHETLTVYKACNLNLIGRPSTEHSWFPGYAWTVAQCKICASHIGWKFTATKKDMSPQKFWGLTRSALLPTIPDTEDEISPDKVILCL
UniProt Q8C7D2: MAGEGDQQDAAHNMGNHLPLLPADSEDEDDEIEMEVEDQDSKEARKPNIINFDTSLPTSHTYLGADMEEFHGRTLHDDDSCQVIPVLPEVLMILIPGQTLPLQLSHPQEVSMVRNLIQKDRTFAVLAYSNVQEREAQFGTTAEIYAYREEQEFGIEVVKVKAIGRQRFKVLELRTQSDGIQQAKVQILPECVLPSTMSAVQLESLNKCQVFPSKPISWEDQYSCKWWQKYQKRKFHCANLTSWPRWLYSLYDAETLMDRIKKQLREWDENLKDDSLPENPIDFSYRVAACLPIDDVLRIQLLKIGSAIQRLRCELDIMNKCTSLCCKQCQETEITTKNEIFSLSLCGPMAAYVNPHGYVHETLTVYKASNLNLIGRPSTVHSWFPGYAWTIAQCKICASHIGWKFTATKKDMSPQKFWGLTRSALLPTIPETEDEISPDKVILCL

Columns and labels:
human CB1R-myc (human) = human CB1R-myc (human) (UniProt P21554); assay: proximity ligation; in situ PLA (Duolink) in fixed HEK-293T cells transfected with hCB1R-myc and 3xHA-hCRBN; anti-c-myc and anti-HA primary antibodies
[1] = target: human 3xFLAG-CB1R (human) (UniProt P21554); assay: co-IP; HEK-293T cells, transfected; lysates in GST buffer (50 mM Tris-HCl, 10% glycerol, 100 mM NaCl, 2 mM MgCl2, 1% NP-40, pH 7.4); IP with anti-FLAG M2 agarose
human CB1R-Rluc (human) = human CB1R-Rluc (human) (UniProt P21554); assay: FRET or BRET; BRET saturation in HEK-293T cells; constant amount of CB1R-Rluc cDNA and increasing amounts of GFP-hCRBN
[2] = target: endogenous mouse CB1R (hippocampus) (mouse (endogenous in hippocampus)) (UniProt P47746); assay: proximity ligation; in situ PLA (Duolink) in mouse hippocampal sections of WT, GABA-CB1R-KO, Glu-CB1R-KO and CB1R-KO mice; anti-CRBN and anti-CB1R primary antibodies
[3] = target: endogenous mouse CB1R (hippocampus) (mouse (endogenous in hippocampus)) (UniProt P47746); assay: co-IP; adult mouse hippocampal tissue, extracts in DDM buffer (25 mM Tris-HCl pH 7.4, 140 mM NaCl, 2 mM EDTA, 0.5% n-dodecyl-β-D-maltoside); IP with anti-CB1R, anti-CRBN or IgG control, Protein G agarose
[4] = target: mouse 3xFLAG-CB1R (mouse) (UniProt P47746); assay: co-IP; HEK-293T cells, transfected; lysates in GST buffer (50 mM Tris-HCl, 10% glycerol, 100 mM NaCl, 2 mM MgCl2, 1% NP-40, pH 7.4); IP with anti-FLAG M2 agarose

## human 3xHA-CRBN (from UniProt Q96SW2 1-442)
Human CB1R-myc (human)
  binding: binds
[1]
  binding: binds

## human GFP-CRBN (from UniProt Q96SW2 1-442)
Human CB1R-Rluc (human)
  binding: binds

## endogenous mouse CRBN (hippocampus) (from UniProt Q8C7D2 1-445)
[2]
  binding: binds
[3]
  binding: binds

## mouse 3xHA-CRBN (from UniProt Q8C7D2 1-445)
[4]
  binding: binds
